{"source": "patent US20240342171A1", "about": "“DISCOVERY OF A F-ATP SYNTHASE INHIBITOR FOR THE TREATMENT OF MYCOBACTERIUM ABSCESSUS DISEASES” (priority 2021, published 2024)", "origin": "cited, not measured here", "tested_on": "M. abscessus", "details": "Ferro et al. 2016; Brown-Elliott et al. 2016", "note": "At least one compound was matched to its structure with a doubt left."}
{"smiles": "C[C@@H](O)[C@H]1C(=O)N2C(C(=O)O)=C(SCCN=CN)C[C@H]12", "note": "[imipenem]", "values": [{"measurement": "MIC of clinically used anti-M. abscessus drugs", "result": 14, "unit": "µM"}]}
